Counter-ions that a name gives are not always drawn. The list shows a part of the results. The calls rarely recur for the same compound in another form.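 Kinases were expressed as nanoluciferase fusions in K562 cells and luminescence was read every 4 h between 2 and 18 h as percent of control, DMSO set to 100% and a positive control to 0%. A time point counts as decreased when the signal drops significantly (2 sigma). The hit call is the authors' own, does not follow from the count of time points alone, and its rule is not shown.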
Experiments:
Experiment in all cases: kinase-Nluc reporter destabilization hit call (1 = scored as downregulated) (binary); higher = compound decreases kinase abundance
Conditions in all cases: K562; 2-18 h
ABL1 = ABL1 (UniProt P00519)
AKT1 = AKT1 (UniProt P31749)
ALK = ALK (UniProt Q9UM73)
ARAF = ARAF (UniProt P10398)
AURKA = AURKA (UniProt O14965)
AURKB = AURKB (UniProt Q96GD4)
AURKC = AURKC (UniProt Q9UQB9)
BLK = BLK (UniProt P51451)
BMX = BMX (UniProt P51813)
BRAF = BRAF (UniProt P15056)

Amino acid sequences for entries named in this document (tags omitted). A change or cut given only in a name is not applied to a line headed by its entry.
UniProt P00519, whole entry: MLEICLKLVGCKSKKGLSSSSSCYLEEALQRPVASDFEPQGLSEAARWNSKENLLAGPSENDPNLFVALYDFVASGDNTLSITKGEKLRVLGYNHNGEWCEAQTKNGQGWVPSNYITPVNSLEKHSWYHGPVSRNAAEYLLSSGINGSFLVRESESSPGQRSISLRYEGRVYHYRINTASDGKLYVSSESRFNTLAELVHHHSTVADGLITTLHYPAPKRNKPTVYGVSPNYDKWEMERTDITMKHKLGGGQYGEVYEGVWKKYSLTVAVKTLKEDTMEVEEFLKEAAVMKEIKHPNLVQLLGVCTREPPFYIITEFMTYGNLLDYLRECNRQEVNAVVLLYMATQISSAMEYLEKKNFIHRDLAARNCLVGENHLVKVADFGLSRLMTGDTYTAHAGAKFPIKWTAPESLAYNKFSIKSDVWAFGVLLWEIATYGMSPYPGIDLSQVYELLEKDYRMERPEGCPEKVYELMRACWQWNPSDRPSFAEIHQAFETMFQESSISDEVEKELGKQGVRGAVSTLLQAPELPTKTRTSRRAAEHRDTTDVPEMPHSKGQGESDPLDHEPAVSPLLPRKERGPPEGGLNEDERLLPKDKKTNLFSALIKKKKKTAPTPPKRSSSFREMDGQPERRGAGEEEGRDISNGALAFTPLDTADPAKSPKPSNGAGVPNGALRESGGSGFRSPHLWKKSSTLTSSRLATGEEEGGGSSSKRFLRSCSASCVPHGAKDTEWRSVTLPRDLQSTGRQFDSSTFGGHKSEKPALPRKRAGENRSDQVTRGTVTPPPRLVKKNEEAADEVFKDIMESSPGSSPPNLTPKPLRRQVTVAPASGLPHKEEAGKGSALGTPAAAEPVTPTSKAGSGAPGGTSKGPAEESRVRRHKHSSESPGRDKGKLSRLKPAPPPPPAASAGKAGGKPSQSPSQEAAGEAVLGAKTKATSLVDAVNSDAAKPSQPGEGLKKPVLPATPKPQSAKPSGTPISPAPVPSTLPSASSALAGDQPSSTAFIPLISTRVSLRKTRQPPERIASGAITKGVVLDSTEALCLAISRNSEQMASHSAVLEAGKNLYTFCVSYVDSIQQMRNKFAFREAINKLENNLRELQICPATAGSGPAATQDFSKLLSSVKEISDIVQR
UniProt P31749: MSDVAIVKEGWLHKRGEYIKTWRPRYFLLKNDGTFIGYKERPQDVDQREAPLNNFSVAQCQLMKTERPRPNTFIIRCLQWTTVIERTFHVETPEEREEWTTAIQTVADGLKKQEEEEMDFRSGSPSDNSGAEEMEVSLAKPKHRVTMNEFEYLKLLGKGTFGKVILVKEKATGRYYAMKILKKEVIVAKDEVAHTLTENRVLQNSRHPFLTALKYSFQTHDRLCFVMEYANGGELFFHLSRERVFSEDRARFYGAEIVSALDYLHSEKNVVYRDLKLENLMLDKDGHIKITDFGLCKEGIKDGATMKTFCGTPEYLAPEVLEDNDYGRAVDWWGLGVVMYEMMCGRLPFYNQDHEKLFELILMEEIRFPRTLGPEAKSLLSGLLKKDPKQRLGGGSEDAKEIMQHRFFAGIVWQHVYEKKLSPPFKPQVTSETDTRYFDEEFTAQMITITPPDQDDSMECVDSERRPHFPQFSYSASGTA
UniProt Q9UM73: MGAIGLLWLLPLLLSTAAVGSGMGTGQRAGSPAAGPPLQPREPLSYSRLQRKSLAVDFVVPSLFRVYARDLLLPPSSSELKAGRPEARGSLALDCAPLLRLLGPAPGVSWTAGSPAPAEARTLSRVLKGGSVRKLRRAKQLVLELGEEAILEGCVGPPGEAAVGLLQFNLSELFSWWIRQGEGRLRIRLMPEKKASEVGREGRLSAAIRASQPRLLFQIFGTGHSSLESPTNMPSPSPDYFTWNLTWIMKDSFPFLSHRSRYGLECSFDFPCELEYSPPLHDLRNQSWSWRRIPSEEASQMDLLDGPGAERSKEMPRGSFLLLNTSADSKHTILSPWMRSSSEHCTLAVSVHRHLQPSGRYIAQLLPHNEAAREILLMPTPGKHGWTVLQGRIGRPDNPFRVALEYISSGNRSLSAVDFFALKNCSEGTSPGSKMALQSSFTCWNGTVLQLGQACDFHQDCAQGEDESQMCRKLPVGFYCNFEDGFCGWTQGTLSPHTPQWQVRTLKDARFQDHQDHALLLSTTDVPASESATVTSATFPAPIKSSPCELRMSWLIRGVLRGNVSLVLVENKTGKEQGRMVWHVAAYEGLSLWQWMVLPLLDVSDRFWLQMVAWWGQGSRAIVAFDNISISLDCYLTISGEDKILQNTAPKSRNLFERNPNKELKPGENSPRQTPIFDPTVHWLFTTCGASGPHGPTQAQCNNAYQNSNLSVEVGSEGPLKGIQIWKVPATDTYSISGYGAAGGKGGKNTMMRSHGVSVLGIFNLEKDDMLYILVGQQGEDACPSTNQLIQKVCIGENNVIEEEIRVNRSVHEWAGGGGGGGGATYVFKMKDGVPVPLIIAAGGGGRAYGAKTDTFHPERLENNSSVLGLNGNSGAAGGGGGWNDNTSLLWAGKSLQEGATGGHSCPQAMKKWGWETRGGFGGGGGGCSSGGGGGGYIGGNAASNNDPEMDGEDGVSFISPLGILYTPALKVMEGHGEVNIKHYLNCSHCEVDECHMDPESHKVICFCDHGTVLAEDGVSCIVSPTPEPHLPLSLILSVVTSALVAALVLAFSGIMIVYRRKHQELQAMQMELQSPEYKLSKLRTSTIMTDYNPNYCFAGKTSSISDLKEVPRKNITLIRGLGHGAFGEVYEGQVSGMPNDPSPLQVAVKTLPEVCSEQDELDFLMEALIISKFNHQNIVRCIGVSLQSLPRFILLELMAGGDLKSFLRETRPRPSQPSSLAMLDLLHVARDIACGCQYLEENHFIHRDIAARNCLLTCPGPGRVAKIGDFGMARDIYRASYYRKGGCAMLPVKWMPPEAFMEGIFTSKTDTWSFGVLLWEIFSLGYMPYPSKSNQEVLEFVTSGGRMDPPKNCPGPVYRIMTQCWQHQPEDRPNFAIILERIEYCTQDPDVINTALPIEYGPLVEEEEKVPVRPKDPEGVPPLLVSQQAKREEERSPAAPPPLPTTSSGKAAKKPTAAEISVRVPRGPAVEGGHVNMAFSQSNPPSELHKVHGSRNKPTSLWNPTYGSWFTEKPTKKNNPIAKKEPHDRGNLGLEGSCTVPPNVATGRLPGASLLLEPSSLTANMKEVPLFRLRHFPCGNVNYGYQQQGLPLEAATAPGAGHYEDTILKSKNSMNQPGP
UniProt P10398: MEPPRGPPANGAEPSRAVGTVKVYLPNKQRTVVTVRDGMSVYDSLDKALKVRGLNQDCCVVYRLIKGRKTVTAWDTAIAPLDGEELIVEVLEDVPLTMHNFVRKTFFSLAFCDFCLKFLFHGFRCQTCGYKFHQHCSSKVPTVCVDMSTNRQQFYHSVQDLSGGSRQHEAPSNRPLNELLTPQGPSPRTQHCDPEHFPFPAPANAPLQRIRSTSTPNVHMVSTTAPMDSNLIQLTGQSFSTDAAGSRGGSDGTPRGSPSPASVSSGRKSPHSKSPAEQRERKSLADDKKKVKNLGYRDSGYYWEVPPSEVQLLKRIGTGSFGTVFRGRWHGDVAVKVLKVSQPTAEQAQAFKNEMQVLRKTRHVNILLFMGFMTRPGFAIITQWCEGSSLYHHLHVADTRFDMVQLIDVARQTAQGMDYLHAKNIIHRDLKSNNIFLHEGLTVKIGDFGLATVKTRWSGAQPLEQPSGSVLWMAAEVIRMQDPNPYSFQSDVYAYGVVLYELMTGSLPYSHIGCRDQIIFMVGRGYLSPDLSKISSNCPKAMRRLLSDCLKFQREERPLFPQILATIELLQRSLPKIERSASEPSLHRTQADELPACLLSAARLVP
UniProt O14965: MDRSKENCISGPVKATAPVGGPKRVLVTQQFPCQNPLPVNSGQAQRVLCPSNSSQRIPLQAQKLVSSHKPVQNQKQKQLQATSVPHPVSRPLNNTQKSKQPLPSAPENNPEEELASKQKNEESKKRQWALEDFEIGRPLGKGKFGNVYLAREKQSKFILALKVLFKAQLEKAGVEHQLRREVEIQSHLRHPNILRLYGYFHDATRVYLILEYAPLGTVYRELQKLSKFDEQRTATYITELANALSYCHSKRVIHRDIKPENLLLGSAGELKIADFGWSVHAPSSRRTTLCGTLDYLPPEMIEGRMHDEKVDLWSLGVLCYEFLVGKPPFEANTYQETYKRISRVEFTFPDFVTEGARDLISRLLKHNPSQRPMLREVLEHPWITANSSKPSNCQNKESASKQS
UniProt Q96GD4, whole entry: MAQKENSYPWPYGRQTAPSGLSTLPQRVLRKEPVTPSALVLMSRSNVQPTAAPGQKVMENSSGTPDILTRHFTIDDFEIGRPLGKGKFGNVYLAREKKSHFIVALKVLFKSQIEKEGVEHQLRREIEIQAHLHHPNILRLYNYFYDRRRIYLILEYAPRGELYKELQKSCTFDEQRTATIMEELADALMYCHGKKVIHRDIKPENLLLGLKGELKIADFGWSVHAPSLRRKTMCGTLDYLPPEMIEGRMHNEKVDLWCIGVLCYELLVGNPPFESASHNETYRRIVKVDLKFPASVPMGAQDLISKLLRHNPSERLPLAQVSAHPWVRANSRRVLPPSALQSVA
UniProt P51451: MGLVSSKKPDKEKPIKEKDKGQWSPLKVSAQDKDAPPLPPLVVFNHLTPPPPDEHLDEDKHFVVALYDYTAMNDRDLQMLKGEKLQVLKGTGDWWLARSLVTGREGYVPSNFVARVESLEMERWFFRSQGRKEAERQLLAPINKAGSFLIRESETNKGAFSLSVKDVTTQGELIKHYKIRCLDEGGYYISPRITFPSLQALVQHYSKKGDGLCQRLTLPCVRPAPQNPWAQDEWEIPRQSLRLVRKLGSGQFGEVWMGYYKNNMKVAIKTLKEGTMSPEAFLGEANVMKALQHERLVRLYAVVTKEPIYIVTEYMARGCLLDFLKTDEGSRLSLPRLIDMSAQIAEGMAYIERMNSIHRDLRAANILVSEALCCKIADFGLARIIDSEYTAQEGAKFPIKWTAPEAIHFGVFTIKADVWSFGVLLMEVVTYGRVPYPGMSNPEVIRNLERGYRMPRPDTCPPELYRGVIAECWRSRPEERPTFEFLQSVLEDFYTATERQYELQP
UniProt P51813: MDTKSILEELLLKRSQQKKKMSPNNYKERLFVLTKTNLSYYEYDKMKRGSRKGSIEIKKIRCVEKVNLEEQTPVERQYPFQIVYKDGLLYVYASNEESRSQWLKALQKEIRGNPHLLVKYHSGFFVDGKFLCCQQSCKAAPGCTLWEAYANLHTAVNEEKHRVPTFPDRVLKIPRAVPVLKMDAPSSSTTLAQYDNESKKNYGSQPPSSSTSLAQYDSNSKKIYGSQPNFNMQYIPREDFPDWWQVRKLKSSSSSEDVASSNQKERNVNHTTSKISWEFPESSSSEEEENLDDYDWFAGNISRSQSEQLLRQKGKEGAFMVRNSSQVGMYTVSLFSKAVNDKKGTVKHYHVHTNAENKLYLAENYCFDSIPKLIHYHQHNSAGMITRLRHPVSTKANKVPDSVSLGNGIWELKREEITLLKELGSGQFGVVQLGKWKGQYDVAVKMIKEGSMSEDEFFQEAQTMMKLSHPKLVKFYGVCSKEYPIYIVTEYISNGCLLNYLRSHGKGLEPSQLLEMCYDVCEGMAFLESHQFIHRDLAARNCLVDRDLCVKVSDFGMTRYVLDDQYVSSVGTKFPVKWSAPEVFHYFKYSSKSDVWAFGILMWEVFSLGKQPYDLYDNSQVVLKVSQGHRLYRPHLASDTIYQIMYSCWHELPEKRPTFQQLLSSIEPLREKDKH
UniProt P15056, whole entry, looked up: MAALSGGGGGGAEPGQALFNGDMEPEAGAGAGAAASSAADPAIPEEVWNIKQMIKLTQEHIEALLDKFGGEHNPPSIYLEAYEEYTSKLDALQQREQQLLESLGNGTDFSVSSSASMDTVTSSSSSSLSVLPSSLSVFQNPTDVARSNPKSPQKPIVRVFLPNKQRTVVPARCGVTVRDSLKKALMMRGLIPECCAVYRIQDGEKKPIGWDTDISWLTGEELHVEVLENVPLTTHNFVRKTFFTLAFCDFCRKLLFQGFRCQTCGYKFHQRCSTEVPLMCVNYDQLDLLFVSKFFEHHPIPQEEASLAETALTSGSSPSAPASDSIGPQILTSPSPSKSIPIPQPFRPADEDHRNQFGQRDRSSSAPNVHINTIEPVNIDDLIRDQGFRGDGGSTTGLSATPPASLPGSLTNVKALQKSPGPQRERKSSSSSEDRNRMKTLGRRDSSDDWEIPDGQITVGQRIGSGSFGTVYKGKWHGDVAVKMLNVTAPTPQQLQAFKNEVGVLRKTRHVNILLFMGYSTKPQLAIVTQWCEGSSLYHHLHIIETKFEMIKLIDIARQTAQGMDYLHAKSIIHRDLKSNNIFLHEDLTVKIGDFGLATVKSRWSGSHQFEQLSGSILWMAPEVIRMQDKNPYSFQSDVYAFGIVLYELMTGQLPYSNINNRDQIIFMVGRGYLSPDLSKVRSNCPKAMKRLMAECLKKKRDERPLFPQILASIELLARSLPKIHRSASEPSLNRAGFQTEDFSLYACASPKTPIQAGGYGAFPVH

Measured: kinase-Nluc reporter destabilization hit call

NC(=O)N1CCC(CC(=O)N2CCC([C@H]3c4ncc(Br)cc4CCc4cc(Cl)cc(Br)c43)CC2)CC1 [Lonafarnib] (2.5 µM)
inactive: ABL1 = 0 | AKT1 = 0 | ALK 0 | ARAF 0 | AURKA 0 | AURKB 0 | AURKC 0 | BLK 0 | BMX 0 | BRAF 0

COCCNc1cc(NC(=O)N2CCCc3cc(CN4CCN(C)CC4=O)c(C=O)nc32)ncc1C#N [Roblitinib] (10 µM)
inactive: ABL1 = 0 | AKT1 = 0 | ALK 0 | ARAF 0 | AURKA 0 | AURKB 0 | AURKC 0 | BLK 0 | BMX 0 | BRAF 0

c1cc(NC2CCNCC2)nc(-c2cnc3ccccn23)c1 [IRAK inhibitor 1] (10 µM)
inactive: ABL1 = 0 | AKT1 = 0 | ALK 0 | ARAF 0 | AURKA 0 | AURKB 0 | AURKC 0 | BLK 0 | BMX 0 | BRAF 0

Oc1ccc(/C=C/c2cc(O)cc(F)c2)cc1 [Resveratrol analog 1] (10 µM)
inactive: ABL1 = 0 | AKT1 = 0 | ALK 0 | ARAF 0 | AURKA 0 | AURKB 0 | AURKC 0 | BLK 0 | BMX 0 | BRAF 0

CN(C)CCC=C1c2ccccc2CCc2ccccc21 [Amitriptyline (hydrochloride)] (2.5 µM)
inactive: ABL1 = 0 | AKT1 = 0 | ALK 0 | ARAF 0 | AURKA 0 | AURKB 0 | AURKC 0 | BLK 0 | BMX 0 | BRAF 0

COc1ccc(N=Nc2c(N)n[nH]c2N)cc1 (10 µM)
inactive: ABL1 = 0 | AKT1 = 0 | ALK 0 | ARAF 0 | AURKA 0 | AURKB 0 | AURKC 0 | BLK 0 | BMX 0 | BRAF 0

Cc1ccc(-c2csc3ncnc(SCCC(=O)O)c23)cc1 (10 µM)
inactive: ABL1 = 0 | AKT1 = 0 | ALK 0 | ARAF 0 | AURKA 0 | AURKB 0 | AURKC 0 | BLK 0 | BMX 0 | BRAF 0

Cc1cc2sc(NC(=O)Cc3ccccc3)nc2cc1Cl (10 µM)
inactive: ABL1 = 0 | AKT1 = 0 | ALK 0 | ARAF 0 | AURKA 0 | AURKB 0 | AURKC 0 | BLK 0 | BMX 0 | BRAF 0

O=[N+]([O-])c1ccc(Nc2nc(N3CCOCC3)nc(N3CCOCC3)n2)cc1 (10 µM)
inactive: ABL1 = 0 | AKT1 = 0 | ALK 0 | ARAF 0 | AURKA 0 | AURKB 0 | AURKC 0 | BLK 0 | BMX 0 | BRAF 0

NC1=NCCN1CC(=O)O [Cyclocreatine] (10 µM)
inactive: ABL1 = 0 | AKT1 = 0 | ALK 0 | ARAF 0 | AURKA 0 | AURKB 0 | AURKC 0 | BLK 0 | BMX 0 | BRAF 0

Cn1cc(C2=C(c3cn(CCCSC(=N)N)c4ccccc34)C(=O)NC2=O)c2ccccc21 [Ro 31-8220 (mesylate)] (2.5 µM)
inactive: ABL1 = 0 | AKT1 = 0 | ALK 0 | ARAF 0 | AURKA 0 | AURKB 0 | AURKC 0 | BLK 0 | BMX 0 | BRAF 0

O[C@@H]1CO[C@H]2[C@@H]1OC[C@H]2Oc1nc2nc(-c3ccc(-c4ccccc4)cc3)c(Cl)cc2[nH]1 (10 µM)
inactive: ABL1 = 0 | AKT1 = 0 | ALK 0 | ARAF 0 | AURKA 0 | AURKB 0 | AURKC 0 | BLK 0 | BMX 0 | BRAF 0

O=c1[nH]c(C2CCCN2)nc2c1oc1ccc(Cl)cc12 (stereo not given) [XL413 (hydrochloride)] (10 µM)
inactive: ABL1 = 0 | AKT1 = 0 | ALK 0 | ARAF 0 | AURKA 0 | AURKB 0 | AURKC 0 | BLK 0 | BMX 0 | BRAF 0

COc1nn(C)cc1Nc1nccc(-c2c[nH]c3c(NC(=O)[C@@H](C)N4CCN(C)CC4)cccc23)n1 (10 µM)
inactive: ABL1 = 0 | AKT1 = 0 | ALK 0 | ARAF 0 | AURKA 0 | AURKB 0 | AURKC 0 | BLK 0 | BMX 0 | BRAF 0

C=CCc1ccc(O)c(-c2ccc(O)c(CC=C)c2)c1 [Honokiol] (10 µM)
inactive: ABL1 = 0 | AKT1 = 0 | ALK 0 | ARAF 0 | AURKA 0 | AURKB 0 | AURKC 0 | BLK 0 | BMX 0 | BRAF 0

Quoted at random: two entries already listed, in no set order.
O=[N+]([O-])c1ccc(Nc2nc(N3CCOCC3)nc(N3CCOCC3)n2)cc1 (10 µM)
inactive: ABL1 = 0 | AKT1 = 0 | ALK 0 | ARAF 0 | AURKA 0 | AURKB 0 | AURKC 0 | BLK 0 | BMX 0 | BRAF 0

CN(C)CCC=C1c2ccccc2CCc2ccccc21 [Amitriptyline (hydrochloride)] (2.5 µM)
inactive: ABL1 = 0 | AKT1 = 0 | ALK 0 | ARAF 0 | AURKA 0 | AURKB 0 | AURKC 0 | BLK 0 | BMX 0 | BRAF 0

Additional compounds follow:

Cn1cc(-c2cnc3cnn(S(=O)(=O)c4cnc5ccc(-c6cnn(C)c6)cn45)c3c2)cn1 [Glumetinib] (10 µM)
inactive: ABL1 = 0 | AKT1 = 0 | ALK 0 | ARAF 0 | AURKA 0 | AURKB 0 | AURKC 0 | BLK 0 | BMX 0 | BRAF 0

N[C@@H](CCC(=O)O)C(=O)N[C@@H](Cc1c[nH]c2ccccc12)C(=O)O [Oglufanide] (10 µM)
inactive: ABL1 = 0 | AKT1 = 0 | ALK 0 | ARAF 0 | AURKA 0 | AURKB 0 | AURKC 0 | BLK 0 | BMX 0 | BRAF 0

Nc1cccc(-c2cc3c(Oc4cccc(O)c4)ncnc3[nH]2)c1 (10 µM)
inactive: ABL1 = 0 | AKT1 = 0 | ALK 0 | ARAF 0 | AURKA 0 | AURKB 0 | AURKC 0 | BLK 0 | BMX 0 | BRAF 0

CC(C)S(=O)(=O)c1ccc2nccc(Nc3ccc4scnc4c3)c2c1 (10 µM)
inactive: ABL1 = 0 | AKT1 = 0 | ALK 0 | ARAF 0 | AURKA 0 | AURKB 0 | AURKC 0 | BLK 0 | BMX 0 | BRAF 0

COc1ccccc1C(=O)/C=C/c1ccccc1C(=O)O (10 µM)
inactive: ABL1 = 0 | AKT1 = 0 | ALK 0 | ARAF 0 | AURKA 0 | AURKB 0 | AURKC 0 | BLK 0 | BMX 0 | BRAF 0

C=C[C@@](C)(/C=C/c1ccc(O)cc1)CCC=C(C)C [Bakuchiol] (10 µM)
inactive: ABL1 = 0 | AKT1 = 0 | ALK 0 | ARAF 0 | AURKA 0 | AURKB 0 | AURKC 0 | BLK 0 | BMX 0 | BRAF 0

COc1ccc(-c2coc3cc(O)ccc3c2=O)cc1 [Formononetin] (10 µM)
inactive: ABL1 = 0 | AKT1 = 0 | ALK 0 | ARAF 0 | AURKA 0 | AURKB 0 | AURKC 0 | BLK 0 | BMX 0 | BRAF 0

O=C(O)c1cccc(CN2C(=O)/C(=C(\c3ccccc3)c3ccc(Cl)cc3)c3ccccc32)c1 (2.5 µM)
inactive: ABL1 = 0 | AKT1 = 0 | ALK 0 | ARAF 0 | AURKA 0 | AURKB 0 | AURKC 0 | BLK 0 | BMX 0 | BRAF 0

Cn1ncc2cc(-c3cnc(N)c(Cl)c3N3CCC4(CCNC4=O)CC3)ccc21 (10 µM)
inactive: ABL1 = 0 | AKT1 = 0 | ALK 0 | ARAF 0 | AURKA 0 | AURKB 0 | AURKC 0 | BLK 0 | BMX 0 | BRAF 0

COc1cc2ncnc(Nc3ccccc3)c2cc1OC (10 µM)
inactive: ABL1 = 0 | AKT1 = 0 | ALK 0 | ARAF 0 | AURKA 0 | AURKB 0 | AURKC 0 | BLK 0 | BMX 0 | BRAF 0

Cc1ncc(NC(=O)NC2c3ccccc3-c3ccccc32)c(-c2ccccc2)n1 (10 µM)
inactive: ABL1 = 0 | AKT1 = 0 | ALK 0 | ARAF 0 | AURKA 0 | AURKB 0 | AURKC 0 | BLK 0 | BMX 0 | BRAF 0

CN1CC[C@@H](c2c(O)cc(O)c3c(=O)cc(-c4ccc(C(F)(F)F)cc4Cl)oc23)[C@@H]1CO [Voruciclib (hydrochloride)] (10 µM)
inactive: ABL1 = 0 | AKT1 = 0 | ALK 0 | ARAF 0 | AURKA 0 | AURKB 0 | AURKC 0 | BLK 0 | BMX 0 | BRAF 0

CC(C)N1CCN(c2ccc(Nc3ncc4cc5n(c4n3)C3(CCCCC3)CNC5=O)nc2)CC1 [Lerociclib (dihydrochloride)] (2 µM)
inactive: ABL1 = 0 | AKT1 = 0 | ALK 0 | ARAF 0 | AURKA 0 | AURKB 0 | AURKC 0 | BLK 0 | BMX 0 | BRAF 0

COc1cc(/C=C/C(=O)N2CCC=CC2=O)cc(OC)c1OC [Piperlongumine] (2.5 µM)
inactive: ABL1 = 0 | AKT1 = 0 | ALK 0 | ARAF 0 | AURKA 0 | AURKB 0 | AURKC 0 | BLK 0 | BMX 0 | BRAF 0

CC(=O)c1c(C)c2cnc(Nc3ccc(N4CCN(C(=O)CNc5cccc6c5C(=O)N(C5CCC(=O)NC5=O)C6=O)CC4)cn3)nc2n(C2CCCC2)c1=O (stereo not given) (10 µM)
inactive: ABL1 = 0 | AKT1 = 0 | ALK 0 | ARAF 0 | AURKA 0 | AURKB 0 | AURKC 0 | BLK 0 | BMX 0 | BRAF 0

CC(C)(C)n1nc(Cc2ccccc2O)c2c(N)ncnc21 (10 µM)
inactive: ABL1 = 0 | AKT1 = 0 | ALK 0 | ARAF 0 | AURKA 0 | AURKB 0 | AURKC 0 | BLK 0 | BMX 0 | BRAF 0

From the supplement of paper PMC12823440, “Inhibitors supercharge kinase turnover through native proteolytic circuits” (Nature, 2025)
